Screen size: about 31,000 sequences; about 1,400 (4.5%) were called active.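 How the source made its calls: active means median seed-adjusted z-score above 1 or below -1; inactive means the rest.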 This is one part of the list.
Assay: Novel Modifiers of Survival Motor Neuron (SMN) Protein: Gene Identification via Genome-wide siRNA Screen;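 further: luminescence tracks full-length SMN protein made from the SMN2 reporter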
Details: HEK293T SMN2-luciferase reporter, siRNA knockdown, 72 h; actives lie on both sides
Method in brief: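 Each of three siRNAs per gene is reverse-transfected (1 pmol) into reporter HEK293T cells whose luciferase output tracks SMN protein level. After 72 h culture, ONE-Glo luminescence is control-normalized, log10-transformed and MAD-standardized; Common Seed Analysis deprioritizes seed-driven hits.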

Sequence	median seed-adjusted z-score
CCCACUACAGAAGACUUAUTT against SLC4A1	inactive: -0.861
GAAGAGCUGUGAAAGGCAATT against ZNF274	inactive: 0.452
GCAUGGAUAUUUUAAGGGUTT against NELL2	inactive: 0.0918
CCUUCUAAUUGAUAAGGCATT against ZNF611	inactive: -0.0392
AAGGCAUCGUGAUAUCACUTT against SLC10A1	inactive: -0.19
GCUUAUUGUUAUUAGAUCUTT against EIF2S3	inactive: -0.0572
GUACGUUAGUGUUCGCGAUTT against SUB1	inactive: -0.571
AGUAUUUGUUGGUUCAUAATT against FXC1	inactive: -0.00735
GCAUUCUACUCAGUGCUCUTT against MFSD9	inactive: 0.36
CGAGAGAGGUUCUUAUAGATT against MTAP	inactive: -0.0621
CCUAAUGACAGAAUGAAUATT against SIVA1	inactive: 0.0451
CGAUUUGAAGGUCCAUAUATT against DNAJC2	inactive: -0.0357
CUGCUAGUCUGUCUCCAAATT against SPINK7	inactive: -0.409
GGAGAUAUGUAUCCUAUCATT against KCNG3	inactive: 0.0832
GCAACAAGGUGGACUCCUATT against HSPG2	inactive: 0.478
CAGGCUACAUCUUUGCUUUTT against PIGA	inactive: -0.0514
CAAGCAUAGUCUAGGCAAATT against PPARGC1B	inactive: -0.366
CGUAAGAACUGAGAUAGGATT against CAMK4	inactive: 0
GUCCUAACCUGAUUAUAAATT against REXO2	inactive: -0.0419
GAAUACCGACAAUACACUATT against VDAC1	inactive: 0.133
GAUGAUAUCCUACUAGGCATT against CD302	inactive: 0.0818
GCAGUCUACCAAUCGAAAATT against CGN	inactive: 0.33
GGCAUUAUGUGAAGGCGAATT against SMC5	inactive: 0.0666
GAUUUUCGGCAGAAACGUATT against ARHGEF12	inactive: 0.136
CGUCAACUCUCAGAUCCAATT against SNX8	inactive: 0.115
CUGUUUCGAUGGAUCGGCATT against SLC28A1	inactive: 0.129
CUGGAAUGGUUGUCUGGUATT against SERTAD1	inactive: 0.376

Part of the list above, set out differently:

| Sequence | median seed-adjusted z-score |
| --- | --- |
| AGUAUUUGUUGGUUCAUAATT against FXC1 | inactive: -0.00735 |
| GCAUUCUACUCAGUGCUCUTT against MFSD9 | inactive: 0.36 |
| CGAGAGAGGUUCUUAUAGATT against MTAP | inactive: -0.0621 |
| CCUAAUGACAGAAUGAAUATT against SIVA1 | inactive: 0.0451 |
| CGAUUUGAAGGUCCAUAUATT against DNAJC2 | inactive: -0.0357 |
| CUGCUAGUCUGUCUCCAAATT against SPINK7 | inactive: -0.409 |
| GGAGAUAUGUAUCCUAUCATT against KCNG3 | inactive: 0.0832 |
| GCAACAAGGUGGACUCCUATT against HSPG2 | inactive: 0.478 |
| CAGGCUACAUCUUUGCUUUTT against PIGA | inactive: -0.0514 |
| CAAGCAUAGUCUAGGCAAATT against PPARGC1B | inactive: -0.366 |
| CGUAAGAACUGAGAUAGGATT against CAMK4 | inactive: 0 |
| GUCCUAACCUGAUUAUAAATT against REXO2 | inactive: -0.0419 |
| GAAUACCGACAAUACACUATT against VDAC1 | inactive: 0.133 |
| GAUGAUAUCCUACUAGGCATT against CD302 | inactive: 0.0818 |

Going on with the list:

Sequence	median seed-adjusted z-score
CACUAAUCGUGAGCAUGGATT against XRCC5	active: -1.11
CAUCCGCACCUACACCUAUTT against GBA	inactive: -0.492
CCGAAGUAUGUGGAAUUUATT against FUCA2	inactive: 0.562
GUUUGUCUACAGUUCGUAATT against ABCB1	inactive: -0.384
GGCGGUAUAUGACAACCAATT against PCDH9	inactive: 0.165
GGAGCAUCGUGUGACCAUUTT against NLP	inactive: -0.186
AGGCAACCAUUGGGAUUGATT against RAB6B	inactive: 0
GCCUCCUUAGUAUUCCAAATT against PRKRA	inactive: 0.00259
GGAUAUUCAGGUUCGUGAATT against EIF4A3	inactive: 0.126
GGGCUUGAAUCUCAAUACATT against PLA2G4A	inactive: 0.608
CCGAAAGAAUUAUCGCAAATT against MYO1A	inactive: -0.0501
CCUUCACUGUGACGAAAUATT against CAV1	inactive: 0
GGAUCUUCACACGAUCAAATT against DDEF2	inactive: 0.438
GGGUCAUAGAUACAACAAUTT against PROX2	inactive: -0.825
CCACUCACCCGAUCUCCUATT against GGTLC2	inactive: -0.288
CGAGGAUAUUGUGGAAUCATT against PROCA1	inactive: -0.502
AAAUCGAUGGAGUCCUUUATT against STOML2	inactive: -0.264
GGAUGUUGGUGGUCAAGAUTT against ARF4	inactive: 0.346
AGACGAAGGUUCAACAUCATT against TFEB	inactive: 0.34
CCAAGGUUAUUAUCGCUGUTT against IGSF10	inactive: -0.0992
GGCCGGGAACUGUUGGUUUTT against SYPL2	inactive: 0.233
CUAUAGCAAGUGAACUAAATT against COG5	inactive: -0.0609
GUCUGAACAUAAGACUAAATT against SCYL2	inactive: -0.0652
GGACUUCGAUUCUUUGGAATT against BIK	inactive: 0.0492
GCGGUAAACUCGACACGUUTT against MARK3	inactive: 0.271
GCUCUGUCAAGCUAACUGATT against PAK1	inactive: -0.168
GGGCAUCCAUUUAAAGGCUTT against FRRS1	inactive: -0.4
